In article PMC6687821, “Brain-targeted drug delivery by manipulating protein corona functions” (Nature Communications, 2019):
These are yes or no findings as the source states them, for the method shown. For part of these data: In cells and extracts the contact can be indirect. Some results given as binding are weak or reduced against the parent protein; the word gives no strength.

Chains of the proteins cited; added tags and fusions are not shown. Residues count along the entry.
UniProt P02649, residues 19-317: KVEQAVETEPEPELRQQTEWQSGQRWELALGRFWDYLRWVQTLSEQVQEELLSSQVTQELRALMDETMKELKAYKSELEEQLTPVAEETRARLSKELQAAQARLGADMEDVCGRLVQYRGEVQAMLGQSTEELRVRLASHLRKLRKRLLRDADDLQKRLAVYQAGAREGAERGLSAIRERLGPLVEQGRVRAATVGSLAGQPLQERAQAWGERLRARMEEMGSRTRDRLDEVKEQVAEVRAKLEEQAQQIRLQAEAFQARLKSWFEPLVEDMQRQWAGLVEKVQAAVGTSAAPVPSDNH

What was measured:
[1] = molecular target: T1, SP (Aβ25-35 with amide form of the C-terminal methionine), thiolated, conjugated as SP-PEG3400-DSPE and shown on liposomes (SP-sLip) or PLGA nanoparticles (SP-PLGA NP); assay: radioligand binding; same experiment as a7, read for the absorption of ApoE from human plasma on SP-sLip (shown only through the I-125 rhLRP1 then bound); only the target purified
T1 sequence (peptide, C-terminal amide (CONH2); N-terminal cysteine conjugated with mal-PEG3400-DSPE): CGSNKGAIIGLM

[2] = substrate: T2, SP (Aβ25-35 with amide form of the C-terminal methionine), thiolated, conjugated as SP-PEG3400-DSPE and shown on liposomes (SP-sLip) or PLGA nanoparticles (SP-PLGA NP); assay: co-sedimentation; in vivo: DiI-labeled SP-sLip injected into the tail vein of BALB/c mice, blood sampled at 1 h, corona isolated by centrifugation at 14k RCF, Western blotting for ApoJ, ApoE, ApoA1; plain sLip as control; only the target purified
T2 sequence (peptide, C-terminal amide (CONH2); N-terminal cysteine conjugated with mal-PEG3400-DSPE): CGSNKGAIIGLM

[3] = substrate: T2, ; assay: co-sedimentation; SP-sLip (100 μL, 10 mg/mL) in PBS with 100 μL mouse plasma at 37 °C for 1 h (or different periods); corona isolated at 14k RCF, three washes with cold PBS, SDS-PAGE, silver stain; bands identified by nano-LC-MS/MS; plain sLip as control; only the target purified

Molecule	binding [1]	binding [2]	binding [3]
human plasma ApoE (from UniProt P02649 19-317)	binds	–	–
mouse plasma ApoE (protein, UniProt P08226 19-311) EGEPEVTDQLEWQSNQPWEQALNRFWDYLRWVQTLSDQVQEELQSSQVTQELTALMEDTMTEVKAYKKELEEQLGPVAEETRARLGKEVQAAQARLGADMEDLRNRLGQYRNEVHTMLGQSTEEIRARLSTHLRKMRKRLMRDAEDLQKRLAVYKAGAREGAERGVSAIRERLGPLVEQGRQRTANLGAGAAQPLRDRAQAFGDRIRGRLEEVGNQARDRLEEVREHMEEVRSKMEEQTQQIRLQAEIFQARLKGWFEPIVEDMHRQWANLMEKIQASVATNPIITPVAQENQ	–	binds	binds
